Assay results from PubChem BioAssay AID493014 (National Center for Advancing Translational Sciences (NCATS), 2011).
About 170 (0.05%) of roughly 340,000 compounds were called active. Inconclusive results, whose numbers are uncertain, are shown with a selection of clear calls. The call rests on the fitted dose curve; in most records, active means well fitted inhibition curve with a large enough effect in the signal ratio, with a control signal flat (not every such curve was filed as active); inconclusive means small, poorly fitted or top-dose-only effect, or effect the other way, or a change in a side signal; inactive means flat fitted curve, though single readings scatter; the % refers to the signal ratio. Where the call is inconclusive, the potency comes from a doubtful curve fit.

test: qHTS Assay to Find Inhibitors of Chronic Active B-Cell Receptor Signaling; conditions: ABC-DLBCL IkBa-CBG/CBR reporter, luminescence ratio (green luciferase fused to IkBa over red control in TMD8 lymphoma cells), 4 h; activity change, negative = inhibition: at 46.1 µM (top of the series) unless noted;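 on activity change, negative = inhibition: plate controls were basal doxycycline-induced cells for no effect and cells given 10 µM MG132 for full effect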
Method in brief: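 Compounds up to 46 uM were incubated four hours with TMD8 cells whose green CBG68 luciferase is fused to IkappaBalpha; red CBR luminescence normalised the signal, and concentration-effect curves were fitted to fusion, red and ratio data.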
Potency means the concentration at half of the fitted maximal effect.

SMILES | activity change, negative = inhibition | Potency
CC(C)C(=O)N1c2ccccc2NC2=C(C(=O)CCC2)C1c1ccc(N(C)C)cc1 (stereo not given) | inconclusive: 11.3% | 
CC(C)c1ccc(NC(=O)CSc2nc3ccccc3nc2N2CCCC2)cc1 | inactive | 
Cc1ccccc1C(=O)N/N=C/c1cccc2ccccc12 |  | inconclusive: 12.6 µM [falling, partial curve]
CCOC(=O)c1ccc(N2CCN(c3ccc(F)cc3)CC2)c(NC(=O)Nc2ccc(CC)cc2)c1 |  | inconclusive: 3.55 µM [falling, partial curve, poor fit]
Cc1ccc(-c2n[nH]c3c2CCC3)cc1 |  | inconclusive: 1.64 µM [rising, full curve, poor fit]
CCCCNC(=O)Cn1nc(-c2ccc(C)cc2)ccc1=O | inactive | 
CC(C)Cn1c([N+](=O)[O-])nc2c1c(=O)[nH]c(=O)n2C | inconclusive: -20.5% | 
CCN(Cc1ccccc1)S(=O)(=O)c1ccc(C(=O)N(CCCN(C)C)c2nc3cc4c(cc3s2)OCO4)cc1 | inconclusive: -9.31% | 
CCN(CC)c1ccc(/C=N/NC(=O)c2cnccn2)c(O)c1 |  | inconclusive: 20 µM [falling, partial curve]
CCc1ccc2c(c1)c1nc(C)sc1n2CC | inconclusive: -2.91% | 
CC1CC(C)CN(C(=O)CNC(=O)c2ccc3ccccc3c2)C1 (stereo not given) | inconclusive: 16.1% | 
COc1ccccc1C(=O)Nc1ccnn1C1CCN(CCCc2ccccc2)CC1 | inactive | 
CC(=O)N1CCn2c3c(c4cc(C)ccc42)CCCC31 (stereo not given) | inactive | 
O=C(NCc1ccccc1Cl)C(=O)NCC1OCCN1S(=O)(=O)c1ccc(F)cc1 (stereo not given) | inconclusive: -9.8% | 
Cc1cc(C(=O)CCl)c(C)n1CCc1ccc(Cl)cc1 |  | inconclusive: 35.5 µM [falling, partial curve, poor fit]
COc1ccc(CNc2nc(NCc3ccc(OC)cc3)n(C(=O)c3ccccc3[N+](=O)[O-])n2)cc1 | inconclusive: -5.13% | 
COc1cccc(/C=N/NC(=S)NCc2ccco2)c1OC |  | inconclusive: 31.6 µM [rising, single point]
COC(=O)c1ccc(COC(=O)c2c(C)nn(Cc3ccccc3Cl)c2Cl)o1 | inconclusive: -7.16% | 
CCC(CO)Oc1cc(NC(=O)Cc2ccccc2)c2ncn(C(C)C)c2c1 (stereo not given) | inconclusive: -5.07% | 
Cc1cccnc1NC(=O)c1ccc(NS(=O)(=O)/C=C/c2ccccc2)cc1 | inconclusive: -3.89% | 
C=CCn1c(SCc2nnc(-c3ccccc3)o2)nnc1C(O)c1ccccc1 (stereo not given) | inconclusive: 6% | 
Cc1ccc(NC(=O)CCN2C(=O)c3ccccc3C2=O)cc1C | inconclusive: 0.345% | 
CN(C)CCN(C(=O)c1ccc(S(=O)(=O)N(C)C)cc1)c1nc2cc3c(cc2s1)OCCO3 |  | inconclusive: 22.4 µM [falling, single point]
Cc1ccc(C(=O)Nc2nnc(S(=O)(=O)Nc3ccccc3C)s2)cc1C | inconclusive: 18.6% | 
CCOc1ccc(CN2C(=O)c3ccccc3Sc3ccc(C(=O)NCCCN4CCOCC4)cc32)cc1 | inactive | 
C/C(=N\NC(=O)c1ccc([N+](=O)[O-])c(C)c1)c1ccccc1Cl | inactive | 
C=CCOc1c2ccc(C(=O)NC3CCCc4ccccc43)cc2nn1C (stereo not given) |  | inconclusive: 12.6 µM [falling, single point]

SMILES | activity change, negative = inhibition | Potency
O=C1CCN(Cc2ccccc2)CCN1[C@H](COc1ccccc1)Cc1ccccc1 | inactive | 
O=C(NNC(=O)c1cccc(-n2cnnn2)c1)c1ccccc1 |  | inconclusive: 35.5 µM [falling, single point]
COc1ccccc1-c1coc2cc(O)cc(O)c2c1=O | inconclusive: 8.29% | 
CCOC(=O)c1c2ccc(OCC(=O)N/N=C/c3ccc(C)cc3)cc2n2ccccc12 | inconclusive: 7.92% | 
CC(C)[C@H](NC(N)=O)C(=O)Nc1ccc(F)c(Cl)c1 | inconclusive: 12.8% | 
O=C(c1cc(-c2cccs2)on1)N1CCN(c2ccccc2)CC1 | inconclusive: -22% | 
N#CC1(NC(=O)CSc2nnc(C3CC3)n2C2CC2)CCCCC1 | inactive | 
CCCn1nc(C(=O)OCC(=O)Nc2cccc(OC)c2)c2ccccc2c1=O | inactive | 
CC(C)COc1cccc(C(=O)Nc2ccc(CN3CCOCC3)cc2)c1 |  | inconclusive: 25.1 µM [falling, single point]
COc1ccccc1NC(=O)COc1ccc(Br)cc1CNC1CCCC1 | inactive | 
CCCCNC(=S)NNC(=O)c1c(Cl)c(C)nn1C | inconclusive: 6.76% | 
COc1ccc(C(=O)OCC(=O)Nc2ccccc2)cc1[N+](=O)[O-] |  | inconclusive: 10 µM [falling, partial curve, poor fit]
Cc1ccc(S(=O)(=O)N(C)C)cc1NC(=S)NC12CC3CC(CC(C3)C1)C2 | inactive | 
O=C(Nc1cccc2ccccc12)c1ccc(OC(=S)N2CCOCC2)cc1 | inconclusive: -9.95% | 
O=C(NCC(=O)N1CCN(Cc2ccccc2)CC1)c1cc(Cl)cc([N+](=O)[O-])c1 | inactive | 
COc1ccc(CN(Cc2cccnc2)C(=S)NCCc2ccccc2)cc1OC |  | inconclusive: 15.8 µM [falling, partial curve, poor fit]
CN(C)CCCN(Cc1cc2cc3c(cc2[nH]c1=O)OCO3)C(=S)NCc1ccco1 |  | inconclusive: 12.6 µM [falling, partial curve, poor fit]
NNC(=O)CNc1cccc(Cl)c1 | inactive | 
Cc1cccc(Oc2ccc(N)cc2)c1 | inconclusive: 1.25% | 
COc1cc(C(=O)NCC(=O)OCc2ccccc2Cl)cc(OC)c1OC | inactive | 
Cc1ccsc1/C=N/Nc1ncnc2nc[nH]c12 |  | inconclusive: 15.8 µM [falling, partial curve, poor fit]
Cc1cccc(NC(=O)c2ccoc2C)n1 |  | inconclusive: 6.51 µM [rising, partial curve, poor fit]
CC(C)c1ccc(/C=C/C2=NNC(=O)CC2)cc1 |  | inconclusive: 15.8 µM [falling, single point]
CC1=NN(c2ccccc2)C(=O)C1N=Nc1cccc(O)c1 (stereo not given) | inactive | 
COc1ccc(Nc2ccc(Cl)cc2)c(C(=O)O)c1 | inconclusive: -14.9% | 
COCc1cc(C)n(CC(=O)NCc2ccccc2)c(=O)c1C#N | inactive | 
Cc1nnc(NC(=O)c2cc3ccccc3o2)s1 |  | inconclusive: 15.8 µM [falling, partial curve]

SMILES | activity change, negative = inhibition | Potency
O=C(Nc1ccccc1)Nc1cccc2ccccc12 |  | inconclusive: 14.1 µM [falling, partial curve, poor fit]
Cc1ccc2c(c1)N(CC(=O)NCCCN1CCN(C)CC1)C(=O)CO2 | inactive | 
O=C(NCCC1=CCCCC1)NC12CC3CC(CC(C3)C1)C2 | inconclusive: 12.1% | 
COC(=O)C1=C(C(=O)c2ccccc2)C(c2ccc(O)c(OC)c2)n2nnnc2N1 (stereo not given) |  | inconclusive: 25.9 µM [rising, partial curve, poor fit]
N#Cc1nc(-c2ccco2)oc1NCCc1ccccc1 | inconclusive: 12.6% | 
O=C(NCc1ccccc1F)Nc1ccc([N+](=O)[O-])cc1 | inconclusive: -22.2% | 
COc1ccc(C(=O)NCCCN2CCOCC2)cc1S(=O)(=O)N1CCCc2ccccc21 | inconclusive: 12.9% | 
COc1ccc(-c2cc(-c3cc(OC)ccc3O)[nH]n2)cc1 |  | inconclusive: 16.4 µM [falling, partial curve]
c1cncc(C2Nc3ccccc3-c3nc4ccccc4n32)c1 (stereo not given) | inconclusive: 32.9% | 
Cc1ccc2cccc(SCC(=O)NCC#N)c2n1 | inactive | 
COC(=O)NNC(=S)Nc1cc(OC)ccc1OC | inconclusive: 5.65% | 
CC(=O)c1c(C)[nH]c(C(=O)OCC(=O)Nc2cc(S(=O)(=O)N3CCCCC3)ccc2C)c1C |  | inconclusive: 18.4 µM [falling, partial curve, poor fit]
COc1ccc(CNC(=O)CN(c2ccccc2OC)S(=O)(=O)c2cccs2)cc1 | inactive | 
Fc1ccccc1C1c2cccn2CCN1C(=S)Nc1cccc(Br)c1 (stereo not given) | inconclusive: 12.4% | 
COc1cccc(CNCc2ccc(OC)c3ccccc23)c1OC | inconclusive: -17.7% | 
CCN(CC(=O)Nc1ccccc1OC)C(=O)CSCC(=O)Nc1ccc(OC)cc1 | inactive | 
NC(=O)C1CCN(C2=C(Cl)C(=O)c3ccccc3C2=O)CC1 |  | inconclusive: 0.708 µM [rising, full curve]
COCCn1nnnc1C(C(C)C)N1CCCC(C)C1 (stereo not given) | inconclusive: 10.5% | 
CC(Sc1cccc[n+]1[O-])c1ccccc1 (stereo not given) |  | inconclusive: 35.5 µM [cytotoxic, single point]
C=CCOc1ccc(/C=C/C(=O)OCC(=O)N(C)C2CCS(=O)(=O)C2)cc1 (stereo not given) | inactive | 
O=C(O)c1ccccc1C(=O)NCC(O)c1ccccc1 (stereo not given) | inconclusive: 15.6% | 
Cc1ccc(CSC2=Nc3ccccc3C3=NC(CCC(=O)NCc4cccs4)C(=O)N23)c(C)c1 (stereo not given) | inconclusive: -25.9% | 
C=CCN1C(=O)[C@@H]2Cc3c([nH]c4ccccc34)C(c3ccc(O)cc3)N2C1=S (stereo not given in full) | inconclusive: -0.345% | 
O=[N+]([O-])/C(C=Nc1ccccc1O)=C\Nc1ccccc1O |  | inconclusive: 14.1 µM [falling, single point]
O=S(=O)(c1ccccc1)c1nc(-c2ccco2)oc1NCCCn1ccnc1 |  | inconclusive: 29.1 µM [rising, partial curve, poor fit]
Oc1ccccc1-c1cc(C(F)(F)C(F)F)[nH]n1 |  | inconclusive: 18.4 µM [falling, single point]

3 entries from above, as comma-separated lines:
SMILES,"activity change, negative = inhibition",Potency
O=C(O)c1ccccc1C(=O)NCC(O)c1ccccc1 (stereo not given),inconclusive: 15.6%,
Cc1ccc(CSC2=Nc3ccccc3C3=NC(CCC(=O)NCc4cccs4)C(=O)N23)c(C)c1 (stereo not given),inconclusive: -25.9%,
C=CCN1C(=O)[C@@H]2Cc3c([nH]c4ccccc34)C(c3ccc(O)cc3)N2C1=S (stereo not given in full),inconclusive: -0.345%,
